The AC50 is the concentration at which the activity in the assay is half-maximal.

Consider 64 compounds from PubChem BioAssay AID493014 (National Center for Advancing Translational Sciences (NCATS), 2011).

The nature of the experiment: qHTS Assay to Find Inhibitors of Chronic Active B-Cell Receptor Signaling. As to conditions: ABC-DLBCL IkBa-CBG/CBR reporter, luminescence ratio (green luciferase fused to IkBa over red control in TMD8 lymphoma cells), 4 h. The essentials: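 Compounds up to 46 uM were incubated four hours with TMD8 cells whose green CBG68 luciferase is fused to IkappaBalpha; red CBR luminescence normalised the signal, and concentration-effect curves were fitted to fusion, red and ratio data.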
In general terms: In qHTS, concentration-response curves come from the screen itself.

The mark [1] stands for this setting: measured here: CBR red luminescence, cell number.

This is one part of the list. Further columns of the screen follow, without active or inactive calls. Compounds called inactive in the main read-out are mostly missing here. Potencies come from curve fits of mixed quality, noted in brackets.

For the compound `CC(C)C(C)(C#N)NC(=O)CSc1nc2scc(-c3ccc(F)cc3)c2c(=O)n1Cc1ccccc1` (centres undefined), under setting [1], the AC50 was 16.4 µM [falling, single point].

With `CC(=O)c1cc(CC=C(C)C)c(O)cc1O`, the AC50 under setting [1] was 11.2 µM [rising, partial curve].

With `Cn1c(=O)n(C)c2cc(NS(=O)(=O)c3ccccc3)ccc21`, under setting [1], the AC50 was 17.8 µM [rising, partial curve, poor fit].

Take `CC(=O)C1=C(c2cccc([N+](=O)[O-])c2)N(C(C)=O)n2c(nnc2-c2ccc(C)cc2)S1`: the AC50 under setting [1] is 0.708 µM [rising, full curve, poor fit].

Take `CCn1c(SCC(=O)N2CCCC2)nc2ccccc2c1=O`: under setting [1], the AC50 is 2.51 µM [falling, partial curve, poor fit].

As for `COCCC(=O)N1CCC(Oc2ccc(C(=O)N3CCCCC3CCO)cc2)CC1` (centres undefined), the AC50 under setting [1] was 35.5 µM [rising, partial curve, poor fit].

`C[C@H](CO)N1C[C@H](C)[C@@H](CN(C)C(=O)Nc2ccc3c(c2)OCO3)Oc2ccc(NC(=O)CCC(F)(F)F)cc2C1=O`: under setting [1], the AC50 was 20.6 µM [rising, single point].

For `COc1ccc(Cl)cc1C(=O)Nc1nc2ccccc2[nH]1`, under setting [1], the AC50 is 0.224 µM [falling, full curve].

For `Cc1ccc(C(=O)COC(=O)c2n[nH]c(=O)c3ccccc23)cc1`, under setting [1], the AC50 is 29.1 µM [rising, single point].

For `CC(C)C(NC(=O)c1ccc2c(c1)OCO2)C(=O)N/N=C/c1cccs1` (centres undefined), the AC50 under setting [1] is 0.92 µM [rising, full curve, poor fit].

As for `Cc1occc1C(=O)N/N=C/C=C/c1ccccc1[N+](=O)[O-]`, under setting [1], the AC50 was 22.4 µM [falling, partial curve].

For the compound `COc1ccc(C)c2sc(NC(=O)CCS(=O)(=O)c3ccccc3)nc12`, the AC50 under setting [1] is 3.55 µM [falling, partial curve, poor fit].

With `Cc1c(C(=O)N2CCOCC2)sc(NC(=O)Cc2ccccc2)c1C#N`, under setting [1], the AC50 is 2 µM [rising, partial curve, poor fit].

Take `C[C@@H]1CN([C@@H](C)CO)C(=O)c2cccc(NC(=O)C3CCCCC3)c2O[C@@H]1CN(C)C(=O)NC1CCCCC1`: under setting [1], the half-maximal activity concentration (AC50) was 25.9 µM [falling, single point].

Take `O=C(CNCCCO)Nc1cc(C(F)(F)F)cc(NC(=O)CNCCCO)c1Cl`: under setting [1], the AC50 is 7.31 µM [rising, partial curve].

For `COc1ccc(N2CCN(c3nc4ccccc4nc3NS(=O)(=O)c3ccccc3)CC2)cc1`, the AC50 under setting [1] is 9.2 µM [falling, partial curve].

In the case of `Cc1ccc(NC(=O)c2cc(-c3ccccc3)n[nH]2)cc1`, under setting [1], the AC50 is 17.8 µM [falling, partial curve, poor fit].

`Cc1cc(C)n2nc(C(=O)NNC(=O)c3ccccc3)nc2n1`: the AC50 under setting [1] is 1.58 µM [falling, partial curve, poor fit].

Take `COc1ccc2c(c1)c1ncn(CCN3CCCCC3)c(=O)c1n2C`: the AC50 under setting [1] is 29.1 µM [falling, single point].

With `CN(Cc1ccc(Cl)s1)C(=O)CCl`, under setting [1], the AC50 was 8.91 µM [falling, partial curve].

Turning to `O=C(COC(=O)CCC(=O)c1cccs1)Nc1cccc(F)c1`, the AC50 under setting [1] is 0.731 µM [rising, partial curve, poor fit].

With `CCCCOc1ccc(C(=O)Nc2cccc(C)n2)cc1`, the AC50 under setting [1] was 2.24 µM [falling, full curve].

As for `O=C1c2[nH]nc(-c3ccccc3O)c2C(c2cccc(O)c2)N1Cc1ccco1` (centres undefined), under setting [1], the AC50 is 12.6 µM [falling, single point].

Consider `CC1CC(C)(C)Nc2ccc(N=O)cc21` (centres undefined), for which the AC50 under setting [1] was 22.4 µM [falling, partial curve, poor fit].

For the compound `COc1ccc(CSc2nc(C)[nH]c2[N+](=O)[O-])cc1[N+](=O)[O-]`, the AC50 under setting [1] is 14.1 µM [rising, single point].

Take `COc1ccccc1NC(=O)CSc1nnc(-c2ccc(C)cc2)o1`: the AC50 under setting [1] is 15.8 µM [falling, partial curve].

Take `CCC(C)(C)NC(=O)C(c1ccc(O)cc1)N(Cc1ccco1)C(=O)CCC(=O)Nc1ccccn1` (centres undefined): the AC50 under setting [1] was 35.5 µM [falling, single point].

Regarding `Cc1c(Br)c(=O)oc2c(Br)c(O)c(O)cc12`, under setting [1], the AC50 was 23.1 µM [falling, single point].

Take `Cc1ccc(NC(=O)COC(=O)c2c(-c3ccccc3)noc2C)c(C)c1`: the AC50 under setting [1] was 2.06 µM [rising, partial curve, poor fit].

For `O=C(O)c1cccc(-n2c(O)c(C=C3N=c4ccccc4=N3)sc2=S)c1`, the AC50 under setting [1] was 3.16 µM [falling, full curve].

With `Cc1ccc(S(=O)(=O)NCCC(=O)OCC(=O)N(Cc2ccccc2)C(C)(C)C)cc1C`, the AC50 under setting [1] is 0.366 µM [rising, full curve].

As to `Nc1c(C(=O)NCc2ccco2)c2nc3ccccc3nc2n1CCc1ccccc1`, the AC50 (measured here: IkBa-CBG green luminescence) is 29.1 µM [falling, partial curve, poor fit].

Regarding `COc1ccc(C[C@H]2CN3C(=NC[C@@H]3Cc3ccccc3)N2CCNC(=O)c2ccc(C)c(Br)c2)cc1`, under setting [1], the AC50 is 35.5 µM [falling, single point].

Turning to `CCCCN1C(=O)/C(=C/C=C2/C=Cc3ccccc3N2CC)SC1=S`, the AC50 under setting [1] was 35.5 µM [rising, single point].

Take `COc1ccc(CCCNC(=O)C2CCC(=O)N(CCCN3CCCC3=O)C2)cc1` (centres undefined): the AC50 under setting [1] was 0.398 µM [falling, full curve].

As to `CC(C)(C)c1ccc(OCCC(=O)OCC(=O)Nc2cccnc2Cl)cc1`, the concentration at half-maximal activity (AC50) under setting [1] was 18.4 µM [falling, single point].

In the case of `COc1ccc(-c2cc(-c3ccc(Cl)cc3)n[nH]2)c(O)c1`, the AC50 under setting [1] was 10 µM [falling, partial curve, poor fit].

Turning to `Cc1ccc(S(=O)(=O)Nc2ccc(-c3ccc4nncn4n3)cc2)cc1`, the AC50 under setting [1] was 29.1 µM [rising, partial curve, poor fit].

As for `Cc1ccc(O)c(-c2cc3ccccc3[nH]2)c1`, under setting [1], the AC50 is 29.1 µM [rising, single point].

For the compound `CCOc1ccccc1N1CCN(C(=O)c2cc(-c3cccnc3)nc3c(Cl)cccc23)CC1`, the half-maximal activity concentration (AC50) under setting [1] was 1 µM [rising, full curve, poor fit].

Turning to `COc1ccc(NC(=O)c2c(Nc3ccccc3)sc(C(=O)c3ccc(F)cc3)c2N)cc1`, under setting [1], the AC50 was 29.1 µM [falling, single point].

Consider `COC(=O)Cn1nnc(-c2cccc(OC)c2)n1`, for which the AC50 under setting [1] is 25.1 µM [rising, single point].

As to `Cc1nn2c3ccccc3n(CC(=O)c3cccs3)c2nc1=O`, the AC50 under setting [1] is 35.5 µM [falling, single point].

For the compound `Cc1nc(NCc2ccccc2)c2cc[nH]c2n1`, under setting [1], the AC50 is 4.47 µM [rising, full curve, poor fit].

As to `CC(/C=C/c1ccccc1)=N\Nc1nc(C)cc(C)n1`, under setting [1], the AC50 is 29.1 µM [rising, single point].

As for `COc1ccc([C@]23Cc4cc(OC)c(OC)cc4C(O2)c2c(c4ccccc4oc2=O)O3)cc1`, the AC50 under setting [1] is 0.891 µM [falling, full curve, poor fit].

`Cc1ccc2c(c1)NC(=O)c1cccnc1N2`: the AC50 under setting [1] is 5.01 µM [falling, full curve, poor fit].

Consider `Cc1ccc(NC(=S)C2=C(O)c3ccccc3N(C)S2(=O)=O)cc1`, for which the half-maximal activity concentration (AC50) under setting [1] was 20.6 µM [falling, partial curve, poor fit].

For `COc1ccc(OCC(=O)Nc2ccc(C)c(S(=O)(=O)N(C)C)c2)cc1`, the AC50 under setting [1] was 22.4 µM [rising, single point].

As for `Cc1cc(-c2ccc(S(=O)(=O)Nc3ccc(Cl)cc3)cc2)on1`, the AC50 under setting [1] is 25.1 µM [falling, single point].

Consider `Cc1[nH]c2ccc(-c3nnc(SCC(=O)c4ccccc4F)o3)cc2c1C`, for which, under setting [1], the concentration at half-maximal activity (AC50) is 15.8 µM [rising, single point].

For the compound `CCc1nnc(NC(=O)CSc2nc3cccnc3n2C2CCCCC2)s1`, under setting [1], the AC50 is 20.6 µM [falling, partial curve, poor fit].

For the compound `O=C(c1sccc1-n1cccc1)N1CCCC1`, the AC50 under setting [1] was 0.146 µM [falling, full curve, poor fit].

With `Cc1cc(C)cc(NC(=S)NCC2CCN(C(C)c3ccccc3)C2)c1` (centres undefined), the AC50 under setting [1] was 35.5 µM [falling, single point].

Take `COc1ccc(C(c2sc3nc(C)nn3c2O)N2CCC3(CC2)OCCO3)cc1` (centres undefined): the AC50 under setting [1] is 35.5 µM [rising, partial curve, poor fit].

`O=C(CCC(=O)N(CC(=O)NC1CCCCC1)c1ccc(F)cc1)Nc1ccccn1`: the AC50 under setting [1] was 8.91 µM [falling, partial curve].

`COc1ccc(N(C=O)C(=S)SC)cc1`: the AC50 under setting [1] was 20 µM [falling, single point].

`CC(=O)N(c1ccccc1)c1c(F)c(F)c(F)c(F)c1F`: under setting [1], the AC50 is 18.4 µM [falling, single point].

On to `CC(=O)Oc1cccc(N2C(=O)C3C4C=CC(CC4)C3C2=O)c1` (centres undefined), for which the AC50 under setting [1] was 0.501 µM [rising, full curve, poor fit].

`Cn1cc(C(=O)O)c(-c2ccc3c(c2)OCCCO3)n1`: the AC50 under setting [1] was 10 µM [rising, partial curve, poor fit].

Regarding `O=C(COc1ccc2ccccc2c1)Nc1ccc(Br)cc1C(=O)O`, the AC50 under setting [1] is 5.62 µM [falling, partial curve].

In the case of `O=C(NCCCCNC(=O)c1cccnc1Cl)c1cccnc1Cl`, the AC50 under setting [1] is 2.24 µM [rising, full curve, poor fit].

On to `O=C1CNC(=O)N1c1ccc(Cl)cc1`, for which the AC50 under setting [1] was 0.0891 µM [rising, full curve, poor fit].

As for `O=C(CC1C(=O)NCCN1Cc1ccc(F)cc1Cl)NC1CCCCCCC1` (centres undefined), under setting [1], the concentration at half-maximal activity (AC50) is 35.5 µM [falling, partial curve, poor fit].
